The nature of the data set: physchem. Conditions: octanol/water.

Usually logP stands for a log measure of how a compound divides between an organic and an aqueous phase. With `C[C@@H]1CN(Cc2ccc(F)cc2)CCN1C(=O)COc1ccc(Cl)cc1NC(N)=O` [BX 471 FREE BASE], the logP amounted to 2.1.

Source of the values: ChEMBL document CHEMBL2176887, “Chemokine receptor antagonists” (J Med Chem, 2012).
